Values from PubChem BioAssay AID1224830 (NIAID, 2016).

Screen: 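Host factors that control LPS-induced TNF expression in human macrophages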 (primary screen)
Cell system: human THP-1 monocytic leukaemia cells, TNF dual-luciferase reporter clone, PMA-differentiated to macrophage-like cells
Reagents: siRNA pool against human genes, 50 nM
Duration: LPS for 4 h, given about 3 days after siRNA transfection
Treatment: bacterial LPS (TLR4 ligand), 10 ng/ml
Detection: 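TNF firefly reporter luminescence divided by renilla, normalised to the plate median, then turned into a robust z-score for each replicate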
Reading the numbers: TNF reporter robust z-score: higher = stronger TNF reporter response to LPS
Rule for the call: 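a well is active when its z-score exceeds 2.8 or falls below -1.5; control wells carry no call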
This is a random part of about 18,000 deposited reagents. In the full data, about 2,900 (16%) were called active. 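Calls are made per well; low scores hint the gene aids the LPS response, high scores that it dampens it.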 Repeated entries: four replicate wells of each siRNA pool. Reagent sequences are not shown.

KNSTRN (kinetochore localized astrin (SPAG5) binding protein) — TNF reporter robust z-score: 0.09; Outcome: inactive
KNSTRN (kinetochore localized astrin (SPAG5) binding protein) — TNF reporter robust z-score: -0.12; Outcome: inactive
KNSTRN (kinetochore localized astrin (SPAG5) binding protein) — TNF reporter robust z-score: 0.39; Outcome: inactive
KNSTRN (kinetochore localized astrin (SPAG5) binding protein) — TNF reporter robust z-score: 0.87; Outcome: inactive
RBM41 (RNA binding motif protein 41) — TNF reporter robust z-score: 0.01; Outcome: inactive
RBM41 (RNA binding motif protein 41) — TNF reporter robust z-score: 0.67; Outcome: inactive
RBM41 (RNA binding motif protein 41) — TNF reporter robust z-score: -0.1; Outcome: inactive
KCNN4 (potassium calcium-activated channel subfamily N member 4) — TNF reporter robust z-score: -0.57; Outcome: inactive
KCNN4 (potassium calcium-activated channel subfamily N member 4) — TNF reporter robust z-score: -1.05; Outcome: inactive
KCNN4 (potassium calcium-activated channel subfamily N member 4) — TNF reporter robust z-score: -0.23; Outcome: inactive
KCNN4 (potassium calcium-activated channel subfamily N member 4) — TNF reporter robust z-score: -0.36; Outcome: inactive
CITED2 (Cbp/p300 interacting transactivator with ED-rich tail 2) — TNF reporter robust z-score: -0.22; Outcome: inactive
CITED2 (Cbp/p300 interacting transactivator with ED-rich tail 2) — TNF reporter robust z-score: 0.38; Outcome: inactive
CITED2 (Cbp/p300 interacting transactivator with ED-rich tail 2) — TNF reporter robust z-score: -1.03; Outcome: inactive
CITED2 (Cbp/p300 interacting transactivator with ED-rich tail 2) — TNF reporter robust z-score: 1.11; Outcome: inactive
YTHDC2 (YTH N6-methyladenosine RNA binding protein C2) — TNF reporter robust z-score: 1.63; Outcome: inactive
YTHDC2 (YTH N6-methyladenosine RNA binding protein C2) — TNF reporter robust z-score: 0.63; Outcome: inactive
YTHDC2 (YTH N6-methyladenosine RNA binding protein C2) — TNF reporter robust z-score: 0.66; Outcome: inactive
YTHDC2 (YTH N6-methyladenosine RNA binding protein C2) — TNF reporter robust z-score: 0.61; Outcome: inactive
HEATR1 (HEAT repeat containing 1) — TNF reporter robust z-score: -0.3; Outcome: inactive
HEATR1 (HEAT repeat containing 1) — TNF reporter robust z-score: 0.78; Outcome: inactive
HEATR1 (HEAT repeat containing 1) — TNF reporter robust z-score: 0.22; Outcome: inactive
HEATR1 (HEAT repeat containing 1) — TNF reporter robust z-score: 0.32; Outcome: inactive
NTHL1 (nth like DNA glycosylase 1) — TNF reporter robust z-score: -0.98; Outcome: inactive
NTHL1 (nth like DNA glycosylase 1) — TNF reporter robust z-score: -0.45; Outcome: inactive
NTHL1 (nth like DNA glycosylase 1) — TNF reporter robust z-score: -1.18; Outcome: inactive
NTHL1 (nth like DNA glycosylase 1) — TNF reporter robust z-score: 0.11; Outcome: inactive
IFT20 (intraflagellar transport 20) — TNF reporter robust z-score: 1; Outcome: inactive
IFT20 (intraflagellar transport 20) — TNF reporter robust z-score: 0.43; Outcome: inactive
IFT20 (intraflagellar transport 20) — TNF reporter robust z-score: -0.9; Outcome: inactive
IFT20 (intraflagellar transport 20) — TNF reporter robust z-score: -0.66; Outcome: inactive
NR3C1 (nuclear receptor subfamily 3 group C member 1) — TNF reporter robust z-score: 0.36; Outcome: inactive
NR3C1 (nuclear receptor subfamily 3 group C member 1) — TNF reporter robust z-score: 1.39; Outcome: inactive
NR3C1 (nuclear receptor subfamily 3 group C member 1) — TNF reporter robust z-score: 0.75; Outcome: inactive
NR3C1 (nuclear receptor subfamily 3 group C member 1) — TNF reporter robust z-score: 1.7; Outcome: inactive

The list goes on (5 carried over from the part before).
IFT20 (intraflagellar transport 20) — TNF reporter robust z-score: -0.66; Outcome: inactive
NR3C1 (nuclear receptor subfamily 3 group C member 1) — TNF reporter robust z-score: 0.36; Outcome: inactive
NR3C1 (nuclear receptor subfamily 3 group C member 1) — TNF reporter robust z-score: 1.39; Outcome: inactive
NR3C1 (nuclear receptor subfamily 3 group C member 1) — TNF reporter robust z-score: 0.75; Outcome: inactive
NR3C1 (nuclear receptor subfamily 3 group C member 1) — TNF reporter robust z-score: 1.7; Outcome: inactive
NSMCE1 (NSE1 component of SMC5/6 complex) — TNF reporter robust z-score: -0.04; Outcome: inactive
NSMCE1 (NSE1 component of SMC5/6 complex) — TNF reporter robust z-score: -0.7; Outcome: inactive
NSMCE1 (NSE1 component of SMC5/6 complex) — TNF reporter robust z-score: 2.39; Outcome: inactive
NSMCE1 (NSE1 component of SMC5/6 complex) — TNF reporter robust z-score: -1.13; Outcome: inactive
OR6C68 (olfactory receptor family 6 subfamily C member 68) — TNF reporter robust z-score: -0.38; Outcome: inactive
OR6C68 (olfactory receptor family 6 subfamily C member 68) — TNF reporter robust z-score: -0.92; Outcome: inactive
OR6C68 (olfactory receptor family 6 subfamily C member 68) — TNF reporter robust z-score: -1.15; Outcome: inactive
OR6C68 (olfactory receptor family 6 subfamily C member 68) — TNF reporter robust z-score: 0.13; Outcome: inactive
KCNG3 — TNF reporter robust z-score: 0.6; Outcome: inactive
KCNG3 — TNF reporter robust z-score: -0.7; Outcome: inactive
KCNG3 — TNF reporter robust z-score: -0.2; Outcome: inactive
KCNG3 — TNF reporter robust z-score: -1.52; Outcome: active
CGB2 (chorionic gonadotropin subunit beta 2) — TNF reporter robust z-score: -0.63; Outcome: inactive
CGB2 (chorionic gonadotropin subunit beta 2) — TNF reporter robust z-score: 0.24; Outcome: inactive
CGB2 (chorionic gonadotropin subunit beta 2) — TNF reporter robust z-score: 0.87; Outcome: inactive
CGB2 (chorionic gonadotropin subunit beta 2) — TNF reporter robust z-score: 0.31; Outcome: inactive
SPOCD1 (SPOC domain containing 1) — TNF reporter robust z-score: 0.93; Outcome: inactive
SPOCD1 (SPOC domain containing 1) — TNF reporter robust z-score: -0.29; Outcome: inactive
SPOCD1 (SPOC domain containing 1) — TNF reporter robust z-score: -0.94; Outcome: inactive
SPOCD1 (SPOC domain containing 1) — TNF reporter robust z-score: -0.81; Outcome: inactive
SYNGR2 (synaptogyrin 2) — TNF reporter robust z-score: -0.63; Outcome: inactive
SYNGR2 (synaptogyrin 2) — TNF reporter robust z-score: -0.06; Outcome: inactive
SYNGR2 (synaptogyrin 2) — TNF reporter robust z-score: 1.21; Outcome: inactive
SYNGR2 (synaptogyrin 2) — TNF reporter robust z-score: 1.37; Outcome: inactive
PRPS2 (phosphoribosyl pyrophosphate synthetase 2) — TNF reporter robust z-score: 0.12; Outcome: inactive
PRPS2 (phosphoribosyl pyrophosphate synthetase 2) — TNF reporter robust z-score: 1.21; Outcome: inactive
PRPS2 (phosphoribosyl pyrophosphate synthetase 2) — TNF reporter robust z-score: 2.47; Outcome: inactive
PRPS2 (phosphoribosyl pyrophosphate synthetase 2) — TNF reporter robust z-score: 2.03; Outcome: inactive
